Laboratory results taken from paper doi:10.1101/518597.
Results are given in words; binding and its absence hold for the method and conditions named. In cells and extracts the contact can be indirect. Binding calls can cover weak binding; strength is not graded here.

T1: endogenous SYNPO (synaptopodin) of mature rat cortical neurons (rat (endogenous in primary cortical neurons)) (UniProt Q9Z327)
T1 sequence: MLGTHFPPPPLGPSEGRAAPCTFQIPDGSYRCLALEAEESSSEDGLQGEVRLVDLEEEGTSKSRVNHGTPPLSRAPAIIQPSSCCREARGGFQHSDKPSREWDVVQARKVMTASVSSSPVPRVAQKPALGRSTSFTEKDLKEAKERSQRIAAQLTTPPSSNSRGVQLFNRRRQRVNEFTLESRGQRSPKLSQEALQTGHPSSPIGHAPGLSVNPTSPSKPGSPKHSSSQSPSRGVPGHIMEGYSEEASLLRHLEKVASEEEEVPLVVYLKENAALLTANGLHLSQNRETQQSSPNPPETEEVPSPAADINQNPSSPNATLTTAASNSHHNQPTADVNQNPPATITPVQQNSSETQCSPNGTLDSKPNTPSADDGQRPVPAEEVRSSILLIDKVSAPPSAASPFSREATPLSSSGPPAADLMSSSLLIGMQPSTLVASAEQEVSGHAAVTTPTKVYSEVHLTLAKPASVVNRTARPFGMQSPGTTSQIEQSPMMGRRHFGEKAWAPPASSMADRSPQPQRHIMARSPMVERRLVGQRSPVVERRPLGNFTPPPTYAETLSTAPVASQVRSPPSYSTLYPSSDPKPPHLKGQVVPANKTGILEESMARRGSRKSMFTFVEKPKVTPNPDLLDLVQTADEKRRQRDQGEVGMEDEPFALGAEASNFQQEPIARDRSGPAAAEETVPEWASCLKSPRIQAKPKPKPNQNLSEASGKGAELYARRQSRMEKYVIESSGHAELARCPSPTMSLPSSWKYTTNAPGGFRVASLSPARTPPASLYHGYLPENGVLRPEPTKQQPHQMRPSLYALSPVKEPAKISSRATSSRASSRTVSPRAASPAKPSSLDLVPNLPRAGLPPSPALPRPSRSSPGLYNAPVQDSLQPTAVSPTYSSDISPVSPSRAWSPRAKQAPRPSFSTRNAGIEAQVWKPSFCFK

B1: endogenous SYNPO (synaptopodin) of mature rat cortical neurons (protein, UniProt Q9Z327 1-931)
chain: T1 sequence

Legend:
[1] = target: T1, endogenous SYNPO (synaptopodin) of mature rat cortical neurons (rat (endogenous in primary cortical neurons)); experiment: co-IP
[2] = target: endogenous BAG3 of mature rat cortical neurons (rat (endogenous in primary cortical neurons)); experiment: co-IP

Row | Molecule | binding [1] | binding [2]
1 | endogenous BAG3 of mature rat cortical neurons | binds | 
2 | B1 |  | binds
